Results are given in words; binding and its absence hold for the method and conditions named. In cells and extracts the contact can be indirect. Some results given as binding are weak or reduced against the parent protein; the word gives no strength.
Key:
[1] = target: T1, Lymphoid-specific helicase (LSH), exogenous in 293T cells (UniProt Q9NRZ9); assay: co-IP; exogenous proteins in 293T cells, lysate in IP buffer with protease inhibitors, antibody overnight at 4°C, Dynabeads Protein G, immunoblot with anti-USP5 or anti-LSH
T1 sequence: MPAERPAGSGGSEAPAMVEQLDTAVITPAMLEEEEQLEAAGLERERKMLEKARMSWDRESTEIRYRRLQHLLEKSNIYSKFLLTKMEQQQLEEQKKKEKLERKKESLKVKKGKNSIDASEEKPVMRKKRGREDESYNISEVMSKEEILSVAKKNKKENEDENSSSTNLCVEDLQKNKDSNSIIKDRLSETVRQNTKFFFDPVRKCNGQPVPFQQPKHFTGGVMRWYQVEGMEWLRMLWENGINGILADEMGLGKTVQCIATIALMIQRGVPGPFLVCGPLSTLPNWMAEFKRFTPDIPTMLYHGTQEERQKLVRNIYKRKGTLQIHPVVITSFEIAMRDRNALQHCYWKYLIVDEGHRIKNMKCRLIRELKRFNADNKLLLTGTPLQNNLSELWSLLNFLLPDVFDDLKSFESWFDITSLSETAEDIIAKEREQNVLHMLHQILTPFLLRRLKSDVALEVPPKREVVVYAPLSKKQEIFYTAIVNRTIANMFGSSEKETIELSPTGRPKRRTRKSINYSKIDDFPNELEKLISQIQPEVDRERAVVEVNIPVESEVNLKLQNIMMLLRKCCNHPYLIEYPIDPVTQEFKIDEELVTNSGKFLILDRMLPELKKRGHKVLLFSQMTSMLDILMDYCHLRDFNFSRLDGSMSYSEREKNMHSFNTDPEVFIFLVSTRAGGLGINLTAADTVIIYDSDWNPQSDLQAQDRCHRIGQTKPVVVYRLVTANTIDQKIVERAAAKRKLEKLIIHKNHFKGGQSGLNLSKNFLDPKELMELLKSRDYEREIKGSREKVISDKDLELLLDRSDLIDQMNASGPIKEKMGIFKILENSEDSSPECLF

Chains of the proteins cited; added tags and fusions are not shown.
UniProt P45974: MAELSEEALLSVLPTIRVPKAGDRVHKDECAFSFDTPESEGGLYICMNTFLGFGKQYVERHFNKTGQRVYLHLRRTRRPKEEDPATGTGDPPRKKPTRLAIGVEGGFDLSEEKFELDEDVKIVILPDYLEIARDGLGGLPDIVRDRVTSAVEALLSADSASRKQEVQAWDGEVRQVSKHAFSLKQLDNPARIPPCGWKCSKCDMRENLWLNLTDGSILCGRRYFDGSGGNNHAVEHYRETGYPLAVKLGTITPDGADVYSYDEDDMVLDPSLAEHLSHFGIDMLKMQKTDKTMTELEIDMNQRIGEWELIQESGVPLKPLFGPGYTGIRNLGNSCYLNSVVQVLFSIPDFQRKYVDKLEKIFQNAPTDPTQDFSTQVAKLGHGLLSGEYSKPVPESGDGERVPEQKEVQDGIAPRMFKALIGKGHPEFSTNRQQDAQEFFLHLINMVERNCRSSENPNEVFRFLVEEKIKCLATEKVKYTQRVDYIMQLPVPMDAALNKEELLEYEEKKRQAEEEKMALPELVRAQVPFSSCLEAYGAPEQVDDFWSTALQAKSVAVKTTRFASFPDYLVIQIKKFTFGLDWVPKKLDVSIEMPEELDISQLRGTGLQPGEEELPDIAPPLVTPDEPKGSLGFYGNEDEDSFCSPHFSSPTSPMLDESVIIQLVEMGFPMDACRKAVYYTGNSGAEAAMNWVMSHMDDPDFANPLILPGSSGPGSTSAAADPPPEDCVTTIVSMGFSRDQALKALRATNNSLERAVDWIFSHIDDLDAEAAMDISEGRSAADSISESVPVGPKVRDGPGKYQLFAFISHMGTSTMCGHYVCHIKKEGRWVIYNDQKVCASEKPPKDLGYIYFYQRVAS

[2] = target: T2, Lymphoid-specific helicase (LSH), endogenous in HepG2 cells (human (endogenous in HepG2)) (UniProt Q9NRZ9); assay: co-IP; endogenous proteins, HepG2 lysate in IP buffer with protease inhibitors, antibody overnight at 4°C, Dynabeads Protein G, immunoblot with anti-USP5 or anti-LSH
T2 sequence: T1 sequence

binding [1] | binding [2] | Substance
binds | – | Ubiquitin-specific protease 5 (USP5), exogenous in 293T cells (from UniProt P45974 1-858) (enzyme)
– | binds | Ubiquitin-specific protease 5 (USP5), endogenous in HepG2 cells (from UniProt P45974 1-858) (enzyme)

Reference: PMC10363799
